PubChem BioAssay AID686938 | Drosophila RNAi Screening Center | 2013

Aim: 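Looking for CRAC channel components and the factors controlling them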 (primary screen)
Cells: Drosophila S2R+ cells
Reagents: long dsRNA against Drosophila genes, about 0.25 µg dsRNA per well, roughly 10,000 cells
Timing: 5 days of knock-down before the calcium assay
Treatment: thapsigargin (SERCA pump blocker) to empty calcium stores; entry signal taken 4 min after adding it
Detection: 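Per-well fluo-4 fluorescence in two replicates, unnormalised, measured in resting cells and 4 min after store depletion by the SERCA blocker thapsigargin; ratio of the two present in few wells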
Direction: calcium entry signal: higher = stronger calcium signal after store depletion; resting calcium signal: higher = higher resting calcium signal
Rule for the call: 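Called when the plate z-score of the entry-to-rest ratio, mean of duplicates, falls below −3; wells with low overall dye signal (Fmax z below −2) or more than five off-targets excluded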
Calls: active = strongly reduced calcium entry; inactive = no strong reduction
In all, the deposit lists about 23,000 reagents; below is an unselected part of those that have a named target and a result. Of all reagents, 75 (0.33%) got an active call. 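Raw plate signals without normalisation; calls rest on plate z-scores that were not deposited; ratio present for only 364 wells.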 The numbers tell different reagents against one gene apart. Not given: the dose of the treatment.

no.	predicted target	reagent	calcium entry signal, replicate 1 (fluorescence units)	calcium entry signal, replicate 2 (fluorescence units)	resting calcium signal, replicate 1 (fluorescence units)	resting calcium signal, replicate 2 (fluorescence units)	call
1	CG11369	1	3.16e7	3.30e7	1.63e7	1.64e7	inactive
2	Eo (Ecdysone oxidase)	1	5.21e7	3.12e7	2.49e7	1.35e7	inactive
3	shot (short stop)	1	5.31e7	4.33e7	2.64e7	2.14e7	inactive
4	shot (short stop)	2	4.35e7	5.54e7	2.39e7	2.47e7	inactive
5	shot (short stop)	3	3.31e7	3.08e7	1.41e7	1.50e7	inactive
6	CG8916	1	3.45e7	3.74e7	1.70e7	1.54e7	inactive
7	HP5 (Heterochromatin protein 5)	1	2.86e7	3.13e7	1.39e7	1.40e7	inactive
8	CG13471	1	5.33e7	6.96e7	2.42e7	2.76e7	inactive
9	CG14244	1	3.25e7	3.37e7	1.73e7	1.46e7	inactive
10	sim (single-minded)	1	2.44e7	3.61e7	1.23e7	4.82e7	inactive
11	Surf1 (Surfeit 1)	1	2.59e7	3.49e7	1.34e7	1.61e7	inactive
12	Surf1 (Surfeit 1)	2	4.97e7	3.34e7	3.11e7	1.43e7	inactive
13	spdo (sanpodo)	1	4.76e7	3.14e7	2.09e7	1.28e7	inactive
14	Pitslre	1	2.83e7	2.84e7	2.34e7	1.52e7	inactive
15	Pitslre	2	2.76e7	2.63e7	1.65e7	1.52e7	inactive
16	Ir84a (Ionotropic receptor 84a)	1	2.64e7	2.10e7	1.35e7	1.10e7	inactive
17	RpS28a (Ribosomal protein S28a)	1	3.94e7	5.60e7	2.00e7	2.64e7	inactive
18	CG5199	1	2.39e7	4.07e7	1.10e7	1.67e7	inactive
19	CG31051	1	5.26e7	4.57e7	2.60e7	2.53e7	inactive
20	hpRNA:CR32205 (hairpin RNA:CR32205)	1	3.45e7	4.55e7	1.77e7	2.09e7	inactive
21	hpRNA:CR32205 (hairpin RNA:CR32205)	2	2.41e7	3.86e7	1.14e7	1.70e7	inactive
22	CG13084	1	5.63e7	4.60e7	2.63e7	2.12e7	inactive
23	TfIIEalpha (Transcription factor IIEalpha)	1	4.38e7	2.96e7	3.54e7	1.44e7	inactive
24	Traf-like (TNF-receptor-associated factor-like)	1	3.86e7	4.32e7	1.82e7	1.96e7	inactive

A few values from above:
spdo (sanpodo), resting calcium signal, replicate 1 (fluorescence units) → 2.09e7
CG13084, resting calcium signal, replicate 2 (fluorescence units): 2.12e7
For “calcium entry signal, replicate 2 (fluorescence units)”, shot (short stop) #2 is entered as 5.54e7
